Binding data for 2 molecules are collected here from paper PMC8997856.

These are yes or no findings as the source states them, for the method shown. In cells and extracts the contact can be indirect. Some entries that bind do so weakly or less than the wild type.

Experiment [1] addresses T1, Sin3A (human (endogenous in MDA-MB-231 and MCF-7)) (UniProt Q96ST3).
T1 sequence: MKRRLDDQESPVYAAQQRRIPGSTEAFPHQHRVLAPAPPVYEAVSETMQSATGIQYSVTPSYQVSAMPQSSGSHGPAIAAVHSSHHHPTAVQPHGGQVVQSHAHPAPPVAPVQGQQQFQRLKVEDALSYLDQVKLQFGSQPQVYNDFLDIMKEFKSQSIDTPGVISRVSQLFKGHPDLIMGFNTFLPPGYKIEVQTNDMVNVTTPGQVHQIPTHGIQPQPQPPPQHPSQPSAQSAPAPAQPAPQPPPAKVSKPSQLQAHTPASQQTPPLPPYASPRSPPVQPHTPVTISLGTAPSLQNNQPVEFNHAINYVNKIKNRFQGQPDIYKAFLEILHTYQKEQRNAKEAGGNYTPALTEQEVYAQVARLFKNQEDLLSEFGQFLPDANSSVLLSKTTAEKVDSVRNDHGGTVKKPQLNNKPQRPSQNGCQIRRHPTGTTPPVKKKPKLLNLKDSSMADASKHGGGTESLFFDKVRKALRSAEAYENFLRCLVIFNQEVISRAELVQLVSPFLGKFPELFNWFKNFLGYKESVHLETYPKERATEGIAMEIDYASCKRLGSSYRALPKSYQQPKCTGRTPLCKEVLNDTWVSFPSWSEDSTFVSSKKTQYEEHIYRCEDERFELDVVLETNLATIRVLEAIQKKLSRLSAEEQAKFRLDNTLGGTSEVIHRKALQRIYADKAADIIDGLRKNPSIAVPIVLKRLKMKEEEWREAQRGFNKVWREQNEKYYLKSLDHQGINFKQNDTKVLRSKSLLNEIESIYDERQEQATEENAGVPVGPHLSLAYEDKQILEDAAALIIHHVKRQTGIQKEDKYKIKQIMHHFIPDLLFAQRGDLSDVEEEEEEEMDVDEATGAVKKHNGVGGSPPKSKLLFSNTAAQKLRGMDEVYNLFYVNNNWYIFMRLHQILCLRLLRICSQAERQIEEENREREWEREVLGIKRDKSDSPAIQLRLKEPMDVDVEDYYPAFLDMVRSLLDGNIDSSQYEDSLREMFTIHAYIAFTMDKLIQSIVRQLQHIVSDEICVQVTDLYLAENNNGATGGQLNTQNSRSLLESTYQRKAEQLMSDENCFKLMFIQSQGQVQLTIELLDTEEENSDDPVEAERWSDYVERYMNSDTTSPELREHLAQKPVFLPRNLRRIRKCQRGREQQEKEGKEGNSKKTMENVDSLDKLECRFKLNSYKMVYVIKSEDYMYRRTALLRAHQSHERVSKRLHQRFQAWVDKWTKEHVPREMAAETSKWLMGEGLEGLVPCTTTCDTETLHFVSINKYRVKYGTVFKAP
Kind of experiment: co-IP; synthetic MAD-SID peptide (5 µM, 24 h) added to living MCF-7 and MDA-MB-231 cells before lysis; read-out is the loss of endogenous partners from the Sin3A co-precipitate; only the binder purified.

For experiment [2], the target named is T2, RXRα (mouse, 4T1 cells) (mouse (endogenous in 4T1)) (UniProt P28700).
T2 sequence: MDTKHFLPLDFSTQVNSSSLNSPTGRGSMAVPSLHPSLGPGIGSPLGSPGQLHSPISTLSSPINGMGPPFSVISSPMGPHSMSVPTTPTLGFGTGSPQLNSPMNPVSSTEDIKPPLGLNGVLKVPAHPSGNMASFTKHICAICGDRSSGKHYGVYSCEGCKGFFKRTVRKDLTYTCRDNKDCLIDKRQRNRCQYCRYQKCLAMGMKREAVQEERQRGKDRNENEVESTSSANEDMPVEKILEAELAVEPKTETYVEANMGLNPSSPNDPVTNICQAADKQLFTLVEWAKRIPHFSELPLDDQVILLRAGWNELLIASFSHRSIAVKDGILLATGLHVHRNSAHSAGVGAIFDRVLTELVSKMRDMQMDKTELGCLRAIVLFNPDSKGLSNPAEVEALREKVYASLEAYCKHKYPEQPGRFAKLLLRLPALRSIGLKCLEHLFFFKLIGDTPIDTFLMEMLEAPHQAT
In words: co-IP; lysates (Pierce IP reagent, 2000 µg) of MDA-MB-231, MCF-7 and 4T1 cells, wild type, or transfected with pCMV/MAD-SID, or treated with 5 µM MAD-Scr or MAD-SID peptide for 24 h; overnight with primary antibody, protein A/G beads, SDS-PAGE and Western blot; mouse IgG as negative control.

The target of experiment [3] is T3, RARα (mouse, 4T1 cells) (mouse (endogenous in 4T1)) (UniProt P11416).
T3 sequence: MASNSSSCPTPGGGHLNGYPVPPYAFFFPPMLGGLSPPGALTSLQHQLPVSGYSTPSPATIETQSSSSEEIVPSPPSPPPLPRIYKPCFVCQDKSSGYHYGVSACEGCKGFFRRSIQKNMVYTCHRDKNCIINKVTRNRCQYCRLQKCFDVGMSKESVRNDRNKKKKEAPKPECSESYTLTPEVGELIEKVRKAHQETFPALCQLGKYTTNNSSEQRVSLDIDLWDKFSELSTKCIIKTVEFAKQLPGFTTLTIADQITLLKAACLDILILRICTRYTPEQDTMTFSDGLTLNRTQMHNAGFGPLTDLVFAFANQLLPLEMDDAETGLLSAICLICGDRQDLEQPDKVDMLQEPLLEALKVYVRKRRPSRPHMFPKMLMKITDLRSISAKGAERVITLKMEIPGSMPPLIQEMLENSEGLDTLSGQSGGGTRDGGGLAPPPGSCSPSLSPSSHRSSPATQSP
The description is as above.

For the molecule YGRKKRRQGGGVRMNIQMLLEAADYLERRER [MAD1 (MXD1) SID peptide], the binding result in experiment [1] was “binds”.

B1: Sin3A (mouse, 4T1 cells) (protein, UniProt Q60520 1-1274)
chain: MKRRLDDQESPVYAAQQRRIPGSTEAFSHQHRVLAPAPPVYEAVSETMQSATGIQYSVAPNYQVSAVPQSSGSHGPAIAAVHSSHHHPTAVQPHGGQVVQSHAHPAPPVAPVQGQQQFQRLKVEDALSYLDQVKLQFGSQPQVYNDFLDIMKEFKSQSIDTPGVISRVSQLFKGHPDLIMGFNTFLPPGYKIEVQTNDMVNVTTPGQVHQIPTHGIQPQPQPPPQHPSQPSSQSAPTPAQPAPQPTAAKVSKPSQLQAHTPASQQTPPLPPYASPRSPPVQPHTPVTISLGTAPSLQNNQPVEFNHAINYVNKIKNRFQGQPDIYKAFLEILHTYQKEQRNAKEAGGNYTPALTEQEVYAQVARLFKNQEDLLSEFGQFLPDANSSVLLSKTTAEKVDSVRNDHGGTVKKPQLNNKPQRPSQNGCQIRRHSGTGATPPVKKKPKLMSLKESSMADASKHGVGTESLFFDKVRKALRSAEAYENFLRCLVIFNQEVISRAELVQLVSPFLGKFPELFNWFKNFLGYKESVHLESFPKERATEGIAMEIDYASCKRLGSSYRALPKSYQQPKCTGRTPLCKEVLNDTWVSFPSWSEDSTFVSSKKTQYEEHIYRCEDERFELDVVLETNLATIRVLEAIQKKLSRLSAEEQAKFRLDNTLGGTSEVIHRKALQRIYADKAADIIDGLRKNPSIAVPIVLKRLKMKEEEWREAQRGFNKVWREQNEKYYLKSLDHQGINFKQNDTKVLRSKSLLNEIESIYDERQEQATEENAGVPVGPHLSLAYEDKQILEDAAALIIHHVKRQTGIQKEDKYKIKQIMHHFIPDLLFAQRGDLSDVEEEEEEEMDVDEATGAPKKHNGVGGSPPKSKLLFSNTAAQKLRGMDEVYNLFYVNNNWYIFMRLHQILCLRLLRICSQAERQIEEENREREWEREVLGIKRDKSDSPAIQLRLKEPMDVDVEDYYPAFLDMVRSLLDGNIDSSQYEDSLREMFTIHAYIAFTMDKLIQSIVRQLQHIVSDEVCVQVTDLYLAENNNGATGGQLNSQTSRSLLESAYQRKAEQLMSDENCFKLMFIQSQGQVQLTVELLDTEEENSDDPVEAERWSDYVERYMSSDTTSPELREHLAQKPVFLPRNLRRIRKCQRGREQQEKEGKEGNSKKTMENVESLDKLECRFKLNSYKMVYVIKSEDYMYRRTALLRAHQSHERVSKRLHQRFQAWVDKWTKEHVPREMAAETSKWLMGEGLEGLVPCTTTCDTETLHFVSINKYRVKYGTVFKAP
As for B1, the binding result in experiment [2] and in experiment [3] was “binds” throughout.
